Results published in PubChem BioAssay AID2685 (National Center for Advancing Translational Sciences (NCATS), 2010).
The list shows a part of the results. The main result of the screen is listed elsewhere. These columns were measured beside it and carry no call. The list favours compounds with an active or inconclusive main result. The note in brackets gives the kind of curve behind each potency; many fits are weak.

Test: qHTS Assay for Lipid Storage Modulators in Drosophila S3 Cells;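 for cell number change: cells counted by Cell Tracker Red CMTPX staining in the red channel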
Settings: BODIPY lipid droplet fluorescence, 18-24 h; for cell number change: measured here: cell count max response, cells fed with added oleic acid
Summary of the method: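 Drosophila S3 cells loaded with oleic acid (400 uM, as added) and compounds at several concentrations; lipid droplets imaged by 488-nm laser-scanning cytometry, 500–530 nm intensity and object ratio to cell channel. Percent activity normalized to 20 uM Triacsin C.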

[1] = measured here: cell number channel AC50, cells fed with added oleic acid
[2] = measured here: lipid fluorescence (Fed channel) AC50, cells fed with added oleic acid

Row | SMILES | cell number change [%] | AC50 [1] | AC50 [2]
1 | CCOc1ccc(N(CC(=O)Nc2ccccc2OC)S(C)(=O)=O)cc1 | 15.5 |  | 
2 | Cc1cc([N+](=O)[O-])ccc1NC(=O)Cc1ccc(F)cc1 | -32.6 | 7.31 µM [falling, partial curve] | 
3 | CCSc1nnc(NC(=O)[C@@H](NC(=O)c2cc(OC)cc(OC)c2)C(C)C)s1 | 20 |  | 29.1 µM [falling, single point]
4 | CC1CCN(C(=O)C2(NC(=O)Nc3cccc(F)c3)CCCCC2)CC1 | -6.13 |  | 3.66 µM [falling, partial curve, poor fit]
5 | CCOC(=O)c1sc(N)c(C(=O)OCC)c1COC(=O)C1CC(=O)N(Cc2ccco2)C1 (stereo not drawn) | -10 |  | 1.46 µM [rising, full curve]
6 | CCN(CC)S(=O)(=O)c1cccc(NC(=O)CNC2CCCCCC2)c1 | 24.8 |  | 1.3 µM [rising, full curve, poor fit]
7 | COc1cc(/C=C/C(=O)O)ccc1OCc1ccccc1C#N | 6.14 |  | 10.3 µM [rising, partial curve, poor fit]
8 | Cc1ccc(S(=O)(=O)/N=C(/Nc2c(C)n(C)n(-c3ccccc3)c2=O)c2ccc(Cl)cc2)cc1 | -36 | 5.8 µM [falling, full curve] | 
9 | N/C(=N\O)c1ccccc1N1CCCCC1 | 1.69 |  | 29.1 µM [rising, partial curve, poor fit]
10 | CN1CCC(=NNC(=O)CN(c2cccc(Cl)c2)S(C)(=O)=O)CC1 | 7.36 |  | 4.61 µM [falling, single point]
11 | COCCCN(CC(=O)O)S(=O)(=O)c1cccc(Cl)c1 | -21.3 |  | 6.51 µM [falling, partial curve, poor fit]
12 | Cc1[nH]c2ccccc2c1/C=N/Nc1nc2ccccc2[nH]1 | -61.5 | 0.58 µM [falling, full curve] | 0.58 µM [falling, full curve]
13 | c1ccc(CSc2nnc3ccc(-c4ccncc4)nn23)nc1 | 5.92 |  | 
14 | CN1C/C(=C/c2cccs2)C(=O)/C(=C\c2cccs2)C1 | 0.794 |  | 2.59 µM [falling, partial curve, poor fit]
15 | Cn1c(O)c(N=NC(=O)c2cc(-c3cccs3)nc3ccccc23)c2ccccc21 | -7.61 |  | 
16 | CC(/C=C1\SC(=S)N(CCC(=O)Nc2ccccc2O)C1=O)=C\c1ccccc1 | 19.4 |  | 1.64 µM [rising, partial curve, poor fit]
17 | CCOC(=O)c1[nH]c2ccccc2c1NC(=O)Nc1ccc(OC)cc1 |  | 2.59 µM [rising, single point] | 
18 | COc1ccc(NS(=O)(=O)c2cccc(NC(=O)CNC(C)=O)c2)cc1 | -19.5 |  | 13 µM [falling, partial curve, poor fit]
19 | O=C(Cc1ccc(F)cc1)NCCS(=O)(=O)N1CCN(c2ccccc2)CC1 | -3.55 |  | 0.651 µM [falling, single point]

Row | SMILES | cell number change [%] | AC50 [1] | AC50 [2]
20 | Nc1c(N2CCN(c3ccccc3)CC2)c2ccccc2oc1=O | 18.4 | 1.16 µM [rising, full curve, poor fit] | 
21 | COc1ccc(OCC(=O)N/N=C(\CCC(=O)O)c2cccs2)cc1 | 21.3 |  | 
22 | COc1cc(OC)cc(C(=O)N2CCN=C2SCc2cccnc2)c1 | 14 |  | 
23 | COC(=O)c1ccccc1NC(=O)C1CCN(S(=O)(=O)c2cc(OC)ccc2OC)CC1 | 128 | 7.31 µM [rising, partial curve] | 6.51 µM [rising, single point]
24 | Cc1ccc(N(C(=O)CNC(=O)c2ccco2)C(C(=O)NCC2CCCO2)c2ccccc2)c(C)c1 (stereo not drawn) | -2.08 |  | 
25 | Cc1nnsc1C(=O)N1CCN(c2ccc(C#N)cn2)CC1 | -27.9 |  | 
26 | Cn1c(N)c(C(=O)CSc2n[nH]c(-c3ccccc3)n2)c(=O)n(C)c1=O | 40.3 | 29.1 µM [rising, single point] | 
27 | O=C(O)CC1Sc2nc3ccccc3n2C1=O (stereo not drawn) | -14 |  | 0.13 µM [falling, full curve]
28 | COc1ccc(C(O)P(=O)(OCC(C)C)c2ccc(N(C)C)cc2)c(OC)c1 (stereo not drawn) | -8.33 |  | 
29 | COC(=O)C1=CN(C)C=C(C(=O)OC)C1c1ccsc1 | -26.2 |  | 20.6 µM [falling, partial curve]
30 | COc1ccc(C(C)=O)cc1CSc1nc2cc(C(=O)O)ccc2c(=O)n1Cc1ccccc1 | 22.8 |  | 20.6 µM [rising, single point]
31 | CCN1C(=O)C(CC(=O)Nc2ccc(OC)cc2)N(CCc2ccc(OC)cc2)C1=S (stereo not drawn) | -155 | 29.1 µM [falling, single point] | 29.1 µM [falling, single point]
32 | CCN(CC)C(=O)CSc1nc(-c2ccc(C)cc2)nc2c1COC(C)(C)C2 | 19.6 | 2.59 µM [rising, single point] | 2.59 µM [rising, full curve]
33 | CCCC(=O)n1nc(-c2cccnc2)nc1NCc1ccc(OC)cc1 | -12.3 | 0.58 µM [falling, partial curve, poor fit] | 6.51 µM [falling, single point]
34 | O=C(CNC(=O)C(c1ccccc1)c1ccccc1)N/N=C\c1ccc2c(c1)OCO2 |  | 2.06 µM [rising, single point] | 23.1 µM [falling, partial curve, poor fit]
35 | CC(C)C[C@H](NC(=O)[C@@H]1Cc2c([nH]c3ccccc23)C2c3ccccc3C(=O)N21)C(=O)NCC1CCCO1 (stereo partly drawn) | -3.24 |  | 
36 | COc1ccc(-c2noc(CSc3nc4ccccc4c(=O)n3-c3ccccc3)n2)cc1OC | 125 | 7.31 µM [rising, partial curve] | 7.31 µM [rising, partial curve]
37 | COc1ccc(C(=O)N2CCC(n3c(C)nc4cc(F)ccc43)CC2)cc1 | 4.73 | 0.651 µM [rising, single point] | 0.731 µM [rising, single point]
38 | CCOC(=O)/C(C)=N/Nc1nc(-c2ccc(NC(C)=O)cc2)cs1 | -15.2 |  | 29.1 µM [falling, single point]

An excerpt of these results, with each value named.
CCN(CC)C(=O)CSc1nc(-c2ccc(C)cc2)nc2c1COC(C)(C)C2
  cell number change [%]: 19.6; AC50 [1]: 2.59 µM [rising, single point]; AC50 [2]: 2.59 µM [rising, full curve]
COc1ccc(-c2noc(CSc3nc4ccccc4c(=O)n3-c3ccccc3)n2)cc1OC
  cell number change [%]: 125; AC50 [1]: 7.31 µM [rising, partial curve]; AC50 [2]: 7.31 µM [rising, partial curve]
